Source: article PMC4759627

Sequences of proteins named here, by UniProt entry; tags and fusion partners are left off. A change or cut given only in a name is not applied to a line headed by its entry.
UniProt Q8TCU6: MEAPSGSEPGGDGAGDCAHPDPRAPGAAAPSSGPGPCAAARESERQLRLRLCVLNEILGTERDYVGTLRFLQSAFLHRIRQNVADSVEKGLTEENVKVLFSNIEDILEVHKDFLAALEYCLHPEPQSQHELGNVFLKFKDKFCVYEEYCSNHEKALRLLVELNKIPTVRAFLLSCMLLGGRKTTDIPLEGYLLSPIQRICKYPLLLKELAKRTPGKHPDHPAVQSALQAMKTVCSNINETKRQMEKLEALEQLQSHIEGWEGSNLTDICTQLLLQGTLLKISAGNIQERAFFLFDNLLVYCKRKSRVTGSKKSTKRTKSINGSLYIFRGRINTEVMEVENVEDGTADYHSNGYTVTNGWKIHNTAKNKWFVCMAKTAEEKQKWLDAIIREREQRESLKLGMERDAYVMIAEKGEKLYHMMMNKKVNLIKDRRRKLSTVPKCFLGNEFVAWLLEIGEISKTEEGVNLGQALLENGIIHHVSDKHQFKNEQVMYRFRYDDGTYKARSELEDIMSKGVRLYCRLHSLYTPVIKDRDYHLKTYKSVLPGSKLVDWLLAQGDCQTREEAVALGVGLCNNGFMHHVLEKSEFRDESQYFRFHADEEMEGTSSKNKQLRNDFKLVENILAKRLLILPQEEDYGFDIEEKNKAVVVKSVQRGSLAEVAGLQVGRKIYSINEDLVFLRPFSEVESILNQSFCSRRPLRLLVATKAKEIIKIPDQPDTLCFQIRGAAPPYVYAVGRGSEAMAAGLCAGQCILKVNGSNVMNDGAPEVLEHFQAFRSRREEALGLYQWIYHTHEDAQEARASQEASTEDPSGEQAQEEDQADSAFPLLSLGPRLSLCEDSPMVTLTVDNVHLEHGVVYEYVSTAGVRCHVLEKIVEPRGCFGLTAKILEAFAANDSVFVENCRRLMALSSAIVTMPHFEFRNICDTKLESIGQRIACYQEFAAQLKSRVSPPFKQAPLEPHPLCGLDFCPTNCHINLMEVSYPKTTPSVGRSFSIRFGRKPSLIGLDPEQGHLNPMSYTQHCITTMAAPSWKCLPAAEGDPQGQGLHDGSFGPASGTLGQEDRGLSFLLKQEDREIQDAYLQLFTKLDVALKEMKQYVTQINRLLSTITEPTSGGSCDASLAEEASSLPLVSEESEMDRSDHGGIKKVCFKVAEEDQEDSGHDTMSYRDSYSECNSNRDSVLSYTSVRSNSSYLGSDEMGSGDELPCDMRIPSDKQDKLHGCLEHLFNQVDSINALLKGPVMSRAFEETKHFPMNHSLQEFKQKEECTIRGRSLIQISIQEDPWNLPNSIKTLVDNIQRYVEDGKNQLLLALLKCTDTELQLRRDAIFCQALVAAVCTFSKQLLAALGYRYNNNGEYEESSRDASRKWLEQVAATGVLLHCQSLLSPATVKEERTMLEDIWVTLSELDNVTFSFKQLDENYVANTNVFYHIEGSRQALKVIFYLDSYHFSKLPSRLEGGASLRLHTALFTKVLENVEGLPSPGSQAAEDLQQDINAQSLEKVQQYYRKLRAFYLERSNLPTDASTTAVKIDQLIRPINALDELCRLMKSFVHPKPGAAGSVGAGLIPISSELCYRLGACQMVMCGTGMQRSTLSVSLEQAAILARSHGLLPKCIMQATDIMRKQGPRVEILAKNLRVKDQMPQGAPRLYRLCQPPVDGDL

Target: T1, FLAG-tagged full-length FLII (FLII FL) (UniProt Q13045)
T1 sequence: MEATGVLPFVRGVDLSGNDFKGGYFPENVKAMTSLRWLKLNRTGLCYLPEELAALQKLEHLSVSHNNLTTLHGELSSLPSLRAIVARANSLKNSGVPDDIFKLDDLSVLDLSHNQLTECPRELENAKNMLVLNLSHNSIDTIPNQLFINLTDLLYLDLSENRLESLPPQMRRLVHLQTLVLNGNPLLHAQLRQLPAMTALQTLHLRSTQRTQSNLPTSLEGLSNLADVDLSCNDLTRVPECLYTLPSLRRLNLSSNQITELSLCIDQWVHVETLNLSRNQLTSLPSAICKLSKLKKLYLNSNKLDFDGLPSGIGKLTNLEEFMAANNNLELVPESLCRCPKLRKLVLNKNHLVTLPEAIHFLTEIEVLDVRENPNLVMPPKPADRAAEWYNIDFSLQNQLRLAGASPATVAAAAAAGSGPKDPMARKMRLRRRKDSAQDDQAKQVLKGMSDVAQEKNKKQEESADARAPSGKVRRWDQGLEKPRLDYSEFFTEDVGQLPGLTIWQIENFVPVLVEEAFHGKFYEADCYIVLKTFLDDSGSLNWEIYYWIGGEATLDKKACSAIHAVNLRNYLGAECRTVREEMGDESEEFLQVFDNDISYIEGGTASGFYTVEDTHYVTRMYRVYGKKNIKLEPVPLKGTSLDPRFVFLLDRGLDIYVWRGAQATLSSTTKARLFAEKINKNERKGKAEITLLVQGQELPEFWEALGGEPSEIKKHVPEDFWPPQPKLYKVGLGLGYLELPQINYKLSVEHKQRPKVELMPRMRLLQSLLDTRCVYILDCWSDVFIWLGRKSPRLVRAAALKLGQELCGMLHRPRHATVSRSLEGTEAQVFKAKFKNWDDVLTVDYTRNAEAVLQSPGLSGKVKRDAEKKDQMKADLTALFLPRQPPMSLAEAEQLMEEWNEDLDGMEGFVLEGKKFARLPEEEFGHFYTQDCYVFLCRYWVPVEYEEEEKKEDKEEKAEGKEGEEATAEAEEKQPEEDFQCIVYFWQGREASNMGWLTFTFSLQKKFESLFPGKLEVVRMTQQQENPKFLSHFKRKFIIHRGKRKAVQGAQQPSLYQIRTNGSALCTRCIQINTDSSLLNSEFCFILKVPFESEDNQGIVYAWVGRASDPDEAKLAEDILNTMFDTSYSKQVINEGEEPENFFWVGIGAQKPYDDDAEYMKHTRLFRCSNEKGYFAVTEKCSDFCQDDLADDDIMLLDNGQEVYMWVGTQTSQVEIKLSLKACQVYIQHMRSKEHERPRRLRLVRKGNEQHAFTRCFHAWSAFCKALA
Experiment: co-IP; FLAG immunoprecipitation on anti-FLAG M2 affinity gel from HEK293T lysates co-expressing FLAG-tagged FLII (FL or domain mutants) and a GEF, 75 min at 4 °C, 3xFLAG peptide elution, western blot

## Myc-tagged P-Rex1 GEF* (GEF-dead mutant) (from UniProt Q8TCU6)
  binding: binds

No constants are given. Whether binding was seen depends on the method and setting. Binding seen in cells or lysates may run through a third protein. Binding calls can cover weak binding; strength is not graded here. Where a sequence is shown, tags or fusion partners need not be part of it.
